# Reference: PubChem BioAssay AID1508600 (Functional Genomics Laboratory (NCATS/FGL), 2020)
# The campaign covered roughly 53,000 sequences. About 3,700 (7%) were called active.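 How the source made its calls: active means gene knockdowns whose robust z-score for IL-1 alpha signal is at least 2 or at most -2, so actives lie on both sides; inactive means the rest.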 The list shows a part of the results.
# Experiment: Components of the Cytosolic LPS Sensing Pathway: Gene Identification via Genome-wide siRNA Screen;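 further: robust z of the log signal after scaling to non-targeting control siRNA wells of the plate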
# Details: RAW264.7 macrophages, IL-1a HTRF, actives lie on both sides, screened at 100 nM (by protocol), cells primed 5 h with Pam3CSK4 first
# Procedure, shortened: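 Knockdown: 100 nM siRNA, 48h, RAW264.7. Stimulation: Pam3CSK4 5 h, then LipidA via TransIT-TKO 24 h. Output: supernatant IL-1a HTRF, negative-control-normalized, log robust z-score; viability by CellTiter-Glo.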
row,Sequence,z-score
1,GGAAGAGAAAGUAAAGAAGTT against Ptpn6,inactive: 0.0296
2,CCCAGCAGAAUAACUGCCATT against Pantr1,active: 2.55
3,GGAGAAGAAGCUGGACCAGTT against Atp5o,inactive: 0.348
4,GGCAAGAAAGUCAUUAGCUTT against Mocs2,inactive: -0.305
5,CCGAUGUCUGAUAGUACAUTT against C3ar1,inactive: 1.61
6,GGAUCAUAAAAAGAAUCACTT against Gpr21,inactive: 0.851
7,GGGAAUAAAAAGGAUCACUTT against Rab39,inactive: 1.27
8,GGUGUGUUUUUGCUUCUCUTT against Tmem9b,inactive: -0.678
9,CCUGGUUAUCCAUUAGUGGTT against Tatdn2,inactive: -0.874
10,CCCAGCAACUACUGGAAACTT against Tas2r139,inactive: -0.293
11,GGUAUUUGGAGUACCCUUUTT against Arhgap11a,inactive: 0.196
12,GGGUUGAAAAGAGGUGUCUTT against Cacng8,inactive: -1.82
13,CCAGGUGAGGUUGCUUAACTT against Bri3bp,inactive: -1.11
14,GGACCGCUACUAUUCAGGATT against Myh10,inactive: 0.93
15,GGAUUCCCGUACAACCAACTT against Sppl2c,inactive: -1.2
16,GCGUGGCCGUCAAAGAGUATT against Basp1,inactive: 1.38
17,CCUAGCUGAGGUGAACAACTT against Spr,inactive: 0.507
18,GGAUUUUACAGUUUUUGGATT against Pccb,inactive: 1.01
19,CCAUAUGCAAGGAAUCUGCTT against Adam26a,inactive: -1.03
20,CCUUAAACUAGAAUUGUGUTT against Grap2,inactive: -0.197
21,GAUUUUCUUUGUUCAUCUCTT against Olfr727,inactive: -0.535
22,GGUAUAAACUCUAAAUGCUTT against Tpk1,inactive: -0.0384

row,Sequence,z-score
1,GCGCAAGAUUCUCCAGCUUTT against Qars,inactive: -1.38
2,CCGUUGGAGUCCAACCUAUTT against Ube2a,active: 2.2
3,GCCGGCUGUAUUCAGUACGTT against Hoxc9,active: 3.06
4,GCUUCAACUCUUUUCAGAGTT against F830208F22Rik,inactive: 0.884
5,GGAUCAGGACAAUGAACUGTT against Ap1s2,inactive: 0.294
6,GGAUCCUAGAGUUUGAGAATT against Ift22,inactive: 0.222
7,CCCUCCAAGAUAGAAGCGGTT against Efcab11,inactive: -0.185
8,GGCCCUGACAGAGGAAAAATT against Impa2,inactive: -1.16
9,CCAGAGUAAGAGUAAAAGCTT against Mamdc2,inactive: 1.27
10,GCCAGAAGAAUCUAUGUUATT against Tcp11x2,inactive: 0.483
11,GGAGGAUCAAGCAAACUUUTT against Gm9801,inactive: 1.95
12,GCGCAAUGAACGGUUCUACTT against Prepl,active: 3.96
13,GGCCAACGUGGAGUUAUCATT against Hsd17b10,inactive: -0.435
14,GGCCCGGUAAAGUGGUAAGTT against Wdr20,inactive: -1.27
15,GGACAUGUUGGAGAAGCAATT against B3galt6,inactive: -1.56
16,CCAGAAAAAAGAUUGUACATT against Hesx1,inactive: -0.43
17,GCUAUGACACGAGAAGGCATT against Tpsab1,inactive: 0.511
18,UUUACUAGACCUGAUGGCUTT against Olfr815,inactive: 0.732
19,GCAACAAUUGCUAGCGUGGTT against Sec23ip,inactive: 0.614
20,GGAGUGGGAAAACAACAAATT against Cpxm1,inactive: 0.914
21,CCCUUAAGUCUUUUUCCUATT against Celf2,inactive: -1.09
22,GCGGUCUGUGGUCUUAAAUTT against She,inactive: -0.449

row,Sequence,z-score
1,GCUUUUGGGUUGUAAGAGATT against Ralgps2,inactive: -1.42
2,GCAAUCGUCAAAAAGAAUCTT against Abhd18,inactive: -0.911
3,GGUUUGGAGAUAUCGUGGGTT against Bmper,inactive: 0.0938
4,GGCAUCCGUGUGUCUCUAGTT against Amdhd2,inactive: 1.8
5,GCUUUUGAAUGUGUGGACUTT against Ugt2b37,inactive: -0.938
6,GGUUAUCAAGAAAAUUGGGTT against Exo1,inactive: -1.4
7,GUGACAGGAUAUGUUUCUATT against Cd226,inactive: -1.14
8,GCUCUAUACCUUACGGUCCTT against Llgl2,inactive: -0.774
9,GCGGGUAACCUCAUGUCUUTT against Phyhip,inactive: 1.35
10,CGACGAAGACGUGAACAAGTT against Trappc3,inactive: -0.368
11,CGCACAGAGAAUAAGGGAATT against Tcta,inactive: 0.843
12,GGAGCUGACAGAGAGAUUCTT against Ankrd40,active: -2.77
13,GGUGGAAACAGAAUGGUACTT against Cntn6,inactive: -0.547
14,GGCUGACAAUCCCAAUCUATT against Zcchc18,inactive: 0.198
15,GGGACAUCAAUCGUAUUUUTT against Adar,inactive: -1.83
16,GGCAUGAAGUUUGAAGCCATT against Cnnm2,active: -2.47
17,GGUCUUUCCCAGGAUUCCATT against Rab19,inactive: -0.837
18,GGAAACAACAACAAAUACATT against C1ql3,inactive: 1.52
19,CCGUAUGUAACCAUCAAAGTT against Ncf1,inactive: 0.281
20,GGCAAAAAAACACAAAGGCTT against Dock5,inactive: -1.22
21,GCAUAGCUCAUCAUUCGGCTT against Wfdc5,inactive: -0.925
22,GCACUUAAUGCAAUAUGGATT against Clock,inactive: -0.579

row,Sequence,z-score
1,CCUUCCAGGAUUUAUUGUGTT against Nr2f1,inactive: -0.315
2,GGUUCCUCCAUUGUUGAAATT against Olfr701,inactive: -1.14
3,GGAGACUGUCAUGGCUGUGTT against Olfr397,inactive: -1.84
4,GCUAAUUCCCUGAAAGAUGTT against Rnf13,inactive: 0.59
5,GGACAGCUGGACCUAAAGGTT against Slco4a1,inactive: -0.417
6,GCUAGAAUACACCAUAGAGTT against Nalcn,inactive: 1.18
7,GCUGAGCUCGGCUUUUCUATT against Mall,inactive: 0.701
8,GGGCGACUAUGUGUGGACUTT against Mmp19,inactive: 0.822
9,GGCUACACAGAAUAAUAAATT against Rpl14,inactive: 0.839
10,GGAGGUAAAAAGUGCCUUATT against Olfr1040,inactive: 0.202
11,GCAACAGGUUAGAAUAGACTT against Scd3,inactive: -1.36
12,GGCAAUAAGAAUCAGAAAATT against Zfp160,inactive: -0.0519
13,CGAACAUCUCAGCAGUGAATT against Dapk3,inactive: 0.299
14,CCAUUGACUCCUUCAUCUUTT against Olfr988,inactive: 0.244
15,GCAGAUUUUGACUAAAGGATT against Sbds,inactive: -0.747
16,GGUCCUAAUUCGAAGCAGATT against Emc3,inactive: -0.589
17,CGGUAUCAACAUUCUGGCUTT against Cd300c,inactive: -0.191
18,CGCAGAUGAUUAAGUUGGUTT against Olfr1000,inactive: 0.961
19,GGAAGAGGCUGAAUCAGCUTT against Nup214,inactive: -1.87
20,GCCUUUCAAUCCUGAUUAATT against Rgs10,inactive: 0.942
21,GCGCAAUGCCAAGGUGUACTT against Msantd1,inactive: 1.44
22,GGUGUGUGGUGGUUGGUAATT against St3gal6,inactive: -0.205

# Looked up above:
# GGUGUGUGGUGGUUGGUAATT against St3gal6 | z-score: inactive: -0.205
# GGACAGCUGGACCUAAAGGTT against Slco4a1 | z-score: inactive: -0.417
# GGUCCUAAUUCGAAGCAGATT against Emc3 | z-score: inactive: -0.589
# GCUGAGCUCGGCUUUUCUATT against Mall | z-score: inactive: 0.701
# GGUUCCUCCAUUGUUGAAATT against Olfr701 | z-score: inactive: -1.14
# GGAAGAGGCUGAAUCAGCUTT against Nup214 | z-score: inactive: -1.87

# The list goes on:

row,Sequence,z-score
1,GGUGUACUGAUUUUGAAGATT against Msh3,inactive: 0.858
2,GGACAAGUUUGAUGGAUCGTT against Rcor3,inactive: 1.1
3,CCAGGAAUCAGUCUAUACUTT against Lrrc15,inactive: 1.45
4,GCUCGAGGCUUAGAAGACUTT against Hspb3,active: 2.23
5,GGUUAAUAUUAGCAUCGUCTT against Zdhhc23,inactive: 0.908
6,GGCACCUCCUGUUACAUACTT against Prr36,inactive: 0.25
7,CCAGAACGGAAGAUGAUCATT against Slc4a1,inactive: -0.242
8,GCCCAGUCAUUCCUACCAATT against Hoxc13,inactive: 0.91
9,CGAGCUAACAGCAUUGCUGTT against Ajuba,inactive: 0.532
10,CCGUCCUCAGUUAUCUCUATT against Sorcs3,inactive: -0.835
11,GGAAUGUGAUGAUGUGAUUTT against Ppm1m,inactive: -1.06
12,CACUCAGCUCAAUGACCUGTT against Ifna14,inactive: 0.0473
13,GGGACUUCUGAUUAAAUUUTT against Skint9,inactive: -1.51
14,GCUUUUCAAACACAGUAGATT against Dlx3,inactive: -0.708
15,GGAGGGAAAAGAGAAGAAATT against Rbm10,inactive: -0.623
16,GGGAGACCAUUGUUCAACUTT against Srpk3,inactive: 0.451
17,GGAGAACUACAGUCUUAUUTT against Slc39a12,inactive: 0.718
18,GGGUGUGUUGGAUACCUAUTT against Adig,active: 2.03
19,GGAUGAUGACUUCCUAGGGTT against Cpne7,inactive: -0.622
